Measurements published in patent US20120110693.

The chains behind the UniProt entries cited, without tags or fusion partners. Where a name states a change or a piece, a line headed by the entry shows the natural chain unless it says otherwise.
UniProt P00375: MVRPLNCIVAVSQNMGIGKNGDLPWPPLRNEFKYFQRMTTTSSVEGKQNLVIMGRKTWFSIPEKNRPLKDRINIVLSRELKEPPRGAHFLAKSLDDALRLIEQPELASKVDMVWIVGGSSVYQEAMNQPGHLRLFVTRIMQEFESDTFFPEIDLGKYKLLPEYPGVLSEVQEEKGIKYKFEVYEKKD

Experiments:
[1] = biological target: T1, pSu9-DHFR (mouse DHFR fused to Neurospora crassa Su9 presequence) (Mus musculus) (UniProt P00375); test: activity assay; conditions: import into isolated potato mitochondria, transcript matured; purified recombinant protein; label: 32P-UTP
T1 sequence (limits assumed): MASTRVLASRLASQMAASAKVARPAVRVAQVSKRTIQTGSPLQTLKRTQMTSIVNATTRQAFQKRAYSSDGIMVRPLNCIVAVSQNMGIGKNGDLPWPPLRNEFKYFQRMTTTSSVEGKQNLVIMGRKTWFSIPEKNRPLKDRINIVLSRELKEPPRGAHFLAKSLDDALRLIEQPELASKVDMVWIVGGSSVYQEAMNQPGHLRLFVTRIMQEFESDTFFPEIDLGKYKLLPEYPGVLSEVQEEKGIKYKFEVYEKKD

GFP = GFP (UniProt P42212); test: binding assay; conditions: Southwestern blot; no interaction; purified recombinant protein; label: 5'-32P; single-stranded DNA
[2] = test system: T2, pSu9-MS2 (pSu9-CP) expressed in yeast (Phage MS2); test: activity in cells; conditions: RNA detected by RT-PCR in mitochondria of yeast; not with MS2 lacking pSu9; protein in cells; protein details: Myc tag, pSu9 mitochondrial targeting sequence
T2 sequence: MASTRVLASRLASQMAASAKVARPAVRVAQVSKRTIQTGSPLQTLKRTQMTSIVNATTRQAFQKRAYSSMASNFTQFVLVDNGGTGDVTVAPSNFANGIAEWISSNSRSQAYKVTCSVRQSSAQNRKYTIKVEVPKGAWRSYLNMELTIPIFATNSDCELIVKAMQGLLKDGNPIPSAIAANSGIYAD

Sequence: GCGAAUUGGAGCUCCACCGCGGUGGCGGCGCUCUAGAACUAGUGGAUCCAAUAGCGAGUAUAGACGUGUCUAAGGGCGAGCAUAACCCAAUAGGUCAGAGUGUCAGAUUGUGAAUUCGAAAACACGGGUUCGAAUCCCGUUAUUCGCCGCACCCCAUUGUCGACCAGGCCCUCUCCCCCCUAUUAAAUAAGUAAAGCGAUGGCCCCGGCUUUCAAUACGUUACAAUCUAUUUAUUCCCCUAAAGGAUCCCCCCGGGCUGCAGG [larch mitochondrial tRNAHis precursor (edited)]
- functional effect [1]: active

Sequence: GGGGATGTAGCTCATATGGTAGAGCGCTCGCTTTGCATGCGAGAGGCACAGGGTTCGATTCCCTGCATCTCCACCA [tRNAAla-sequence DNA oligonucleotide]
- binding result (GFP): no binding

Sequence: AUAAUGUUAUAUAAGUAAUAAUAUAAUAAAAUAUCCUAAGGUACCUAAUUGCCUAGAAAACAUGAGGAUCACCCAUGUCUGCAGGUCGACUCUAGAAAACAUGAGGAUCACCCAUGUCUGCAGUAUUCCCGGG [anticox-2SL RNA]
- functional effect [2]: active

For part of these data: Tags and fusion partners may be left off the protein sequences shown. For part of these data: For at least one entry, the source does not settle the construct or the ends of the probe. For part of these data: A negative result means that nothing was seen under these conditions.
